1 substance from paper PMC8496311 can be followed below.

Results are given in words; binding and its absence hold for the method and conditions named. In cells and extracts the contact can be indirect.

In the test the target is T1, Innexin 2 (Drosophila (endogenous in ovary)) (UniProt Q9V427).
T1 sequence: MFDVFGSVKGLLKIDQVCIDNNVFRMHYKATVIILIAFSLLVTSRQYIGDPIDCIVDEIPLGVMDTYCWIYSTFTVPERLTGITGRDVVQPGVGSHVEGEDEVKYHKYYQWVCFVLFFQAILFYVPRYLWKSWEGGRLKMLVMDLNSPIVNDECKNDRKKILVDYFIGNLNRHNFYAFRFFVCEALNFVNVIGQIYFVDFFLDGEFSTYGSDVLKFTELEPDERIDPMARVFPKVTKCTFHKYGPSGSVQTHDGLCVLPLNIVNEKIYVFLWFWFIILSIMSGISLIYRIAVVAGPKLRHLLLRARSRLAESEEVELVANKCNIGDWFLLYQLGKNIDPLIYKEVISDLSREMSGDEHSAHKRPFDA
The test can be described thus: proximity ligation; fixed (4% PFA) whole-mount Drosophila ovaries; primary antibodies against the two endogenous proteins, goat anti-guinea pig IgG conjugated with Plus oligonucleotide (Duolink); punctate signals counted in single confocal slices.

In the case of “α Tubulin (Drosophila (endogenous in ovary))”, the binding entry is reported as “no binding”.
